# Experimental data reported in the supplement of paper PMC10060354, “Discovery of a small molecule ligand of FRS2 that inhibits invasion and tumor growth” (Cellular Oncology, 2022).
# The chains behind the UniProt entries cited, without tags or fusion partners. Where a name states a change or a piece, a line headed by the entry shows the natural chain unless it says otherwise.
# UniProt Q7Z2K8: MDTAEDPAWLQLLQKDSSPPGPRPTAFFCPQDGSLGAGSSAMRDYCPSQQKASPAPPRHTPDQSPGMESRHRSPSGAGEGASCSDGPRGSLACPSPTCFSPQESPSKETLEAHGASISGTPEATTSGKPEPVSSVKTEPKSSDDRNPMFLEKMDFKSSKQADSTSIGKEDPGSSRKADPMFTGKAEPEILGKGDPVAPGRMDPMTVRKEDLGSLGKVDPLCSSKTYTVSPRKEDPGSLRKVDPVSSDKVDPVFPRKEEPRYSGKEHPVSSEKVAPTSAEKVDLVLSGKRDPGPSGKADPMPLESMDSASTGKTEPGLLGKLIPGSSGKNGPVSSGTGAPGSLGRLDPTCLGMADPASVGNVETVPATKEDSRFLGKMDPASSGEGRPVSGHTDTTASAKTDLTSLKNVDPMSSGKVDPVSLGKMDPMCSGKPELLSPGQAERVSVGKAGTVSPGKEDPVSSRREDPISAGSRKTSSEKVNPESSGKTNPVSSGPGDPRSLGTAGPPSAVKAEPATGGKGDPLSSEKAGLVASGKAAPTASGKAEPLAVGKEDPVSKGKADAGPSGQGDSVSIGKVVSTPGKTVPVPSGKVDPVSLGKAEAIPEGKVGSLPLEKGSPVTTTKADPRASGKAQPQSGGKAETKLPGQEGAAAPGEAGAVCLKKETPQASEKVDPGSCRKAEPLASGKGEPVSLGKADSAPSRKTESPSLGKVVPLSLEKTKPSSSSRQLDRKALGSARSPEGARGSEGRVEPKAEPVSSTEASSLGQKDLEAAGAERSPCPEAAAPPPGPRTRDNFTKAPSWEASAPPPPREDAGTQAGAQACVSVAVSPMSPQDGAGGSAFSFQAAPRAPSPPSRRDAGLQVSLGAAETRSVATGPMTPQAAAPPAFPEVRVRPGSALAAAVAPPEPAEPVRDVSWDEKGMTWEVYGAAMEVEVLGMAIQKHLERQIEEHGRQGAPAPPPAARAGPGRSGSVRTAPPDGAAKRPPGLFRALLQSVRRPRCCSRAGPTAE
# UniProt Q6GMV3: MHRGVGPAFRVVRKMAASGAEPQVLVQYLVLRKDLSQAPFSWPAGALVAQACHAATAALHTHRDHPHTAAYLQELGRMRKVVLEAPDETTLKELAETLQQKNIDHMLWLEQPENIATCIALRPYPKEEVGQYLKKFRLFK
# UniProt Q16342: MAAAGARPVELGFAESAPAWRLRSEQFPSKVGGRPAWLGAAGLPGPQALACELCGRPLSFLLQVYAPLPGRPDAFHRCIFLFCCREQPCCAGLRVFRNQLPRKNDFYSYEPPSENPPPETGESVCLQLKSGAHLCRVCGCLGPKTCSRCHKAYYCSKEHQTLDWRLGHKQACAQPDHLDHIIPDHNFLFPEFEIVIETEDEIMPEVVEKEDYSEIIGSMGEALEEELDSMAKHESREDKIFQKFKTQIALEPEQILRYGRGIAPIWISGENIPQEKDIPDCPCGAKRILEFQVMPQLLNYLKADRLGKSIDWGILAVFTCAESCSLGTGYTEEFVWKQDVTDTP
# UniProt Q96J42: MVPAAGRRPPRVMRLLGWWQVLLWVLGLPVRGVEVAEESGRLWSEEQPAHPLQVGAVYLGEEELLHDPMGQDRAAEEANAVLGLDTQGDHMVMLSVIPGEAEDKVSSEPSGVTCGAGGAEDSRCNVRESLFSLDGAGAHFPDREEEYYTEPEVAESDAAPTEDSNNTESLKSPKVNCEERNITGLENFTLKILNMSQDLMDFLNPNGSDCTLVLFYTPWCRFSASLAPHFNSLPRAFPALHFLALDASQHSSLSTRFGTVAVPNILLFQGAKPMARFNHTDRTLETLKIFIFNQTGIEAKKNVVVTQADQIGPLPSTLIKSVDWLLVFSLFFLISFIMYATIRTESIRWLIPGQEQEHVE
# UniProt Q12913: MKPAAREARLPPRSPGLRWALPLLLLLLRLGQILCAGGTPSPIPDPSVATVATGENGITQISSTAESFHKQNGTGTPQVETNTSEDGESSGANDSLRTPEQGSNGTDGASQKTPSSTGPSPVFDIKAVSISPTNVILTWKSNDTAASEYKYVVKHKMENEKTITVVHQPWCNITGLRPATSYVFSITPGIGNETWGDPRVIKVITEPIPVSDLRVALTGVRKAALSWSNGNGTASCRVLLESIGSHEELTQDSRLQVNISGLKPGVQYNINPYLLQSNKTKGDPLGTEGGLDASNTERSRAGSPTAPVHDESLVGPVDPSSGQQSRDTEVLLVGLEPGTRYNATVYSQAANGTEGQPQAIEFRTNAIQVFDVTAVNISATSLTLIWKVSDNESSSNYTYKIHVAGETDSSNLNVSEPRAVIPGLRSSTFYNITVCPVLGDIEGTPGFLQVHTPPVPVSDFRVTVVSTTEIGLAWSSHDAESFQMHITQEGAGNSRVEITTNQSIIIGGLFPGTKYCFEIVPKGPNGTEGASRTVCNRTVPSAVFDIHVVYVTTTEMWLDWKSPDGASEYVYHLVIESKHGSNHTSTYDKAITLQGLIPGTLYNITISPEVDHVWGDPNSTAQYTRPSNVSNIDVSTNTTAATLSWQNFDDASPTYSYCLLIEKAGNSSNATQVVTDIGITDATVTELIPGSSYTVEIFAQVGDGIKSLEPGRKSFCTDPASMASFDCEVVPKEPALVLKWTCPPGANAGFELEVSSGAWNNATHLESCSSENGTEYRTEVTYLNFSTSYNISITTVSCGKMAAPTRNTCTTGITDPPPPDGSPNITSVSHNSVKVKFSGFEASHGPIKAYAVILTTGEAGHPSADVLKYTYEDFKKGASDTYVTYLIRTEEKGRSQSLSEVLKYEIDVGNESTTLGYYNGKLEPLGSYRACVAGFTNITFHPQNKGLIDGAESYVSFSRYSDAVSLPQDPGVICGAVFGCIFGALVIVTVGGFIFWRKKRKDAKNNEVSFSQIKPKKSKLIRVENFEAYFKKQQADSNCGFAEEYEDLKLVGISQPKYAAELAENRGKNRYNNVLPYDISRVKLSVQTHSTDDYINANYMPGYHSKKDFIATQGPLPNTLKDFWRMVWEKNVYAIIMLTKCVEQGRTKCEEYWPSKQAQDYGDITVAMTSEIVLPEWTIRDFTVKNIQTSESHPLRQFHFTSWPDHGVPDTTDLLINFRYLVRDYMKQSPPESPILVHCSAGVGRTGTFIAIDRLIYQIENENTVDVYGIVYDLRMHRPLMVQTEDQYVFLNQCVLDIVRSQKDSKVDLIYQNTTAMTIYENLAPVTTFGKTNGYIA
# UniProt O60563, whole entry: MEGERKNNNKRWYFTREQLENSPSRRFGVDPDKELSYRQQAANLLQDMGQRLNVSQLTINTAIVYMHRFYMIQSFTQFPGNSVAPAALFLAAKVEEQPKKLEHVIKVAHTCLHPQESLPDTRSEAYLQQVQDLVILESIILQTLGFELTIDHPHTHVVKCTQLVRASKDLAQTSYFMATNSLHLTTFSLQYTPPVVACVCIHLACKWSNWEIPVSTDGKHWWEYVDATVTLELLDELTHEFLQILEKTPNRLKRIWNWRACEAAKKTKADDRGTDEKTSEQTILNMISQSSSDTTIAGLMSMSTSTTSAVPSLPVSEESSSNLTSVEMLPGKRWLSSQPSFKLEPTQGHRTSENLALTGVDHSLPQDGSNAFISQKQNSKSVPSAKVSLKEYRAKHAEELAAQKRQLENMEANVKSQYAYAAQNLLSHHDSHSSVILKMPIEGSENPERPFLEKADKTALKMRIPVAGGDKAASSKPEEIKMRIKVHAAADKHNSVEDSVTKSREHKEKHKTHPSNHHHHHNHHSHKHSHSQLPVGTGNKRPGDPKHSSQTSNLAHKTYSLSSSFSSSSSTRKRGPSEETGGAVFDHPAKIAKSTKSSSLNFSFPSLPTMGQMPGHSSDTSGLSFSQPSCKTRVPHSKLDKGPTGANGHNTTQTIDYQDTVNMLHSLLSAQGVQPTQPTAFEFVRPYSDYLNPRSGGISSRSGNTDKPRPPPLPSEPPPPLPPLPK
# UniProt P29992, whole entry: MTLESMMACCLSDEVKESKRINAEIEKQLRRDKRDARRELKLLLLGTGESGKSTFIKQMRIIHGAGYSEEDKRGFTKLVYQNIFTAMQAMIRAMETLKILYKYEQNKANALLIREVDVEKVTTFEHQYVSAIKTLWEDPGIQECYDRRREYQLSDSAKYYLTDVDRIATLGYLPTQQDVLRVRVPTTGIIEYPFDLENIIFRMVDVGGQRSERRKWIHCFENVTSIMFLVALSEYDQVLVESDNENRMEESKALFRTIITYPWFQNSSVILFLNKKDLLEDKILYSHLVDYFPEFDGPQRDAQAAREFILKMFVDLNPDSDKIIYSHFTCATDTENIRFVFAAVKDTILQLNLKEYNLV
# UniProt P33908: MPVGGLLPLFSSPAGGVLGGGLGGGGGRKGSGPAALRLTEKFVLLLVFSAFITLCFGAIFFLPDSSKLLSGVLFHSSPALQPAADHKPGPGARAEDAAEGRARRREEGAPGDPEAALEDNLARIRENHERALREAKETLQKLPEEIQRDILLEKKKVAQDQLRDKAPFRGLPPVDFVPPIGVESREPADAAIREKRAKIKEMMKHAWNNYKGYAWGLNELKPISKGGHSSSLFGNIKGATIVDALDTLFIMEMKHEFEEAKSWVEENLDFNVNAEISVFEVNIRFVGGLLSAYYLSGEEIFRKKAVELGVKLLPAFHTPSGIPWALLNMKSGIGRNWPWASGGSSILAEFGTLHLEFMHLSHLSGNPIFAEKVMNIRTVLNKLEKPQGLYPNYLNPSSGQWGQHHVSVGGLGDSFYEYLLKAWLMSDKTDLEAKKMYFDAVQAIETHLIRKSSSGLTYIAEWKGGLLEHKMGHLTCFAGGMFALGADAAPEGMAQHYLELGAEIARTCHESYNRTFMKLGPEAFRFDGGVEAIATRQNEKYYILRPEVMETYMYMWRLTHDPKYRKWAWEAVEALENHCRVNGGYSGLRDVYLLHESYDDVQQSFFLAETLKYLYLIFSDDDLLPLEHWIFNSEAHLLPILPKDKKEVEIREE
# UniProt P56385: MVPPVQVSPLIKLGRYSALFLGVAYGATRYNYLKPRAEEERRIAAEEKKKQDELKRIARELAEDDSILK
# UniProt P40121: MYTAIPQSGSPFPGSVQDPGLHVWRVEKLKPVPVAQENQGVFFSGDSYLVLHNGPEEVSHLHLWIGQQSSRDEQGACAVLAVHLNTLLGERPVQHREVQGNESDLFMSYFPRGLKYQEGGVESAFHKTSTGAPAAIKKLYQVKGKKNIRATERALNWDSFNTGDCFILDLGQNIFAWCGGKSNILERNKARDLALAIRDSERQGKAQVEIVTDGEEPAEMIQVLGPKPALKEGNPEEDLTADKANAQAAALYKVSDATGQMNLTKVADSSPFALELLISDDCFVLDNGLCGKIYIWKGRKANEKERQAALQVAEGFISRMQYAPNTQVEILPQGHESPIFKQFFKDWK
# UniProt Q7Z4H3: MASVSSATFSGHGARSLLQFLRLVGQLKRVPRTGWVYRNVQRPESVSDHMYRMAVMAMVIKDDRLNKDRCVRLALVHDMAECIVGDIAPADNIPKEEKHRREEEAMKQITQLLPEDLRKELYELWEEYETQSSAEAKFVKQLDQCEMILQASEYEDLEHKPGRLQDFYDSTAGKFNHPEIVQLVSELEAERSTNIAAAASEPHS
# UniProt Q9NR46: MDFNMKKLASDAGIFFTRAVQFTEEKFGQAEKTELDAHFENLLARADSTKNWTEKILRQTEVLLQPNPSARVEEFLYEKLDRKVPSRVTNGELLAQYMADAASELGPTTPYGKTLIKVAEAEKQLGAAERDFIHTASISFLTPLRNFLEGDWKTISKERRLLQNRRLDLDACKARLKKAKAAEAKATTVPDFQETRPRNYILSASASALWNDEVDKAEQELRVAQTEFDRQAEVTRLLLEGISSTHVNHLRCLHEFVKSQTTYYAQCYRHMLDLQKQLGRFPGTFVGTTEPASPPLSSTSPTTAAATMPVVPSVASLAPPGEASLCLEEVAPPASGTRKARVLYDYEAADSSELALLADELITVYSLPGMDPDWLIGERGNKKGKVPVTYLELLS
# UniProt Q9H6Z4: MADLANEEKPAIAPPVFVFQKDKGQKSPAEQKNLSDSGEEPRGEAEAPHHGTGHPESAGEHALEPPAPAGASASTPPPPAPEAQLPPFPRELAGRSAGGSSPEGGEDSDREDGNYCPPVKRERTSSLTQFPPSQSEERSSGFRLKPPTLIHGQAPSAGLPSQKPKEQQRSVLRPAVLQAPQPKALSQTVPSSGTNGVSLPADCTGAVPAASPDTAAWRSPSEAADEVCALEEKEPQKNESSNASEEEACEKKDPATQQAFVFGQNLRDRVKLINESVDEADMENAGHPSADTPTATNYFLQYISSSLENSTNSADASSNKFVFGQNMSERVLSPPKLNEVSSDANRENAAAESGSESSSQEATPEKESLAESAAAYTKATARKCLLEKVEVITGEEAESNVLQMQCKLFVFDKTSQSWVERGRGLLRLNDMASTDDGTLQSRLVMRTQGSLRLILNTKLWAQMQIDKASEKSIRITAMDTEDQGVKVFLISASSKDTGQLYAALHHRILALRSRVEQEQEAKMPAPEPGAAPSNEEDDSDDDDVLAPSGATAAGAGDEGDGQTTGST
# Compound: [O-][N+](C(C1=C(C(O)=C2)NC(C(C=C3)=CC=C3Cl)C4C1C=CC4)=C2Cl)=O
# Experiment: melting temperature shift (compound 7 minus DMSO); higher = compound stabilises the protein
# Details: 10 µM
# Protocol: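 Thermal proteome profiling (TMT mass spectrometry) in intact DAOY medulloblastoma cells or DAOY lysates treated with 10 µM compound 7 or DMSO, heated at 10 temperatures from 40.5 to 73.8 °C for 3 min. Melting curves were fitted with the Bioconductor TPP package, and the melting point difference between compound and vehicle is reported per protein (single curve per condition).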
# [1] = system: DAOY cell lysate, treatment time: 20 min, 4 °C
# [2] = system: intact DAOY cells, treatment time: 90 min, 37 °C
Target,melting temperature shift [1] [°C],melting temperature shift [2] [°C]
GYG1 (UniProt P46976),-2.25,-0.379
GPRIN1 (UniProt Q7Z2K8),0.946,–
ZMAT2 (UniProt Q96NC0),-2.36,–
RPN1 (UniProt P04843),1.33,-0.445
FAM98B (UniProt Q52LJ0),-1.17,-0.454
UniProt Q6GMV3,2.01,0.924
PDAP1 (UniProt Q13442),-2.76,–
UniProt P16402,1.68,-0.485
ANXA1 (UniProt P04083),-0.0347,0.155
PDCD2 (UniProt Q16342),0.337,-0.801
NDUFB4 (UniProt O95168),1.76,-0.578
CLSPN (UniProt Q9HAW4),-2.2,–
TFDP1 (UniProt Q14186),–,-3.69
ADA (UniProt P00813),-1.68,-0.481
NEDD1 (UniProt Q8NHV4),-1.49,0.237
PLOD2 (UniProt O00469),0.0577,0.699
SLC7A6OS (UniProt Q96CW6),-5.34,–
PRKAR1B (UniProt P31321),-1.74,0.0264
PNPLA6 (UniProt Q8IY17),1.69,–
MSN (UniProt P26038),-0.0561,0.223
CD59 (UniProt P13987),2.57,–
SMARCA4 (UniProt P51532),-0.269,-0.924
UniProt Q9P1T7,–,4.89

Target,melting temperature shift [1] [°C],melting temperature shift [2] [°C]
NIFK (UniProt Q9BYG3),1.34,-0.266
UniProt Q58FF8,–,-0.438
TXNDC15 (UniProt Q96J42),-1.32,–
GEMIN6 (UniProt Q8WXD5),-0.375,2.11
PSMG3 (UniProt Q9BT73),5,1.39
UniProt Q9H019,-1.08,-3.5
AGMAT (UniProt Q9BSE5),-0.498,-3.46
UniProt Q15041,1.5,–
UniProt Q9NZI7,0.649,–
RIN1 (UniProt Q13671),-0.284,-1.31
FBN1 (UniProt P35555),-0.901,-0.338
RUVBL2 (UniProt Q9Y230),-1.21,0.557
PLEKHF1 (UniProt Q96S99),–,-1.15
YIPF3 (UniProt Q9GZM5),1.47,-3.2
TBC1D22A (UniProt Q8WUA7),-0.891,–
PTPRJ (UniProt Q12913),1.55,-0.399
MRPL28 (UniProt Q13084),2.25,-1.09
UniProt Q96G61,-1.1,0.578
KLHDC4 (UniProt Q8TBB5),-0.249,–
UAP1L1 (UniProt Q3KQV9),-0.468,-0.00274
EMC7 (UniProt Q9NPA0),0.696,-1.21
TTC37 (UniProt Q6PGP7),-0.417,–
SAP18 (UniProt O00422),-0.72,2.56

Target,melting temperature shift [1] [°C],melting temperature shift [2] [°C]
FBXO9 (UniProt Q9UK97),–,2.36
UniProt P18433,2.04,–
ZNF281 (UniProt Q9Y2X9),-1.03,–
THOC5 (UniProt Q13769),0.658,2.84
UBAP2L (UniProt Q14157),-0.837,–
GNB2 (UniProt P62879),1.1,-0.428
TJP2 (UniProt Q9UDY2),-0.114,-0.782
SUPT6H (UniProt Q7KZ85),-0.24,-0.231
CCNT1 (UniProt O60563),-0.293,-0.596
HSPA14 (UniProt Q0VDF9),-0.929,-0.957
UniProt O76075,–,-1.2
GATSL2 (UniProt A6NHX0),-0.409,-0.914
DCAF15 (UniProt Q66K64),-1.11,0.897
RB1CC1 (UniProt Q8TDY2),1.75,-1.96
UBE3A (UniProt Q05086),-0.504,-0.531
UBXN1 (UniProt Q04323),0.552,-1.05
GNA11 (UniProt P29992),0.796,-0.193
INPP5K (UniProt Q9BT40),0.52,–
MCM7 (UniProt P33993),-0.954,-0.922
PXN (UniProt P49023),-2.03,1.53
UniProt P48729,0.445,0.185
ACSL1 (UniProt P33121),0.373,3.38
CEBPZ (UniProt Q03701),0.202,–

# Full records from above.
# THOC5 (UniProt Q13769) is listed as melting temperature shift [1] [°C] = 0.658; melting temperature shift [2] [°C] = 2.84
# MRPL28 (UniProt Q13084) is listed as melting temperature shift [1] [°C] = 2.25; melting temperature shift [2] [°C] = -1.09
# PTPRJ (UniProt Q12913) is listed as melting temperature shift [1] [°C] = 1.55; melting temperature shift [2] [°C] = -0.399
# UniProt P48729 is listed as melting temperature shift [1] [°C] = 0.445; melting temperature shift [2] [°C] = 0.185

# Next records follow.

Target,melting temperature shift [1] [°C],melting temperature shift [2] [°C]
RAF1 (UniProt P04049),-1.44,-0.397
MAN1A1 (UniProt P33908),-0.976,-2.89
UniProt P56385,0.362,-1.79
RRM2 (UniProt P31350),-0.331,-1.32
UniProt Q16739,–,0.352
RARS (UniProt P54136),-0.897,-0.0819
ANAPC10 (UniProt Q9UM13),0.0443,-0.416
CUL2 (UniProt Q13617),-0.101,-0.22
UniProt P28065,-0.624,0.0138
CCT3 (UniProt P49368),-0.328,-0.433
NCAPG (UniProt Q9BPX3),-1.19,-0.57
GSE1 (UniProt Q14687),1.12,–
ZNF609 (UniProt O15014),0.599,–
UniProt P38432,0.0215,–
NUP35 (UniProt Q8NFH5),0.559,0.229
CAPG (UniProt P40121),0.25,0.65
BLOC1S1 (UniProt P78537),-0.0158,–
HDLBP (UniProt Q00341),-0.297,-0.324
ITGAV (UniProt P06756),2.71,–
ATG16L1 (UniProt Q676U5),-1.26,-0.885
COMMD9 (UniProt Q9P000),0.227,2.01
BAIAP2L1 (UniProt Q9UHR4),-0.557,-0.587
SNW1 (UniProt Q13573),-0.265,0.124

Target,melting temperature shift [1] [°C],melting temperature shift [2] [°C]
STAT5B (UniProt P51692),-0.735,-0.754
C19ORF52 (UniProt Q9BSF4),-1.32,1.75
HDDC2 (UniProt Q7Z4H3),-0.91,-2.44
OXCT1 (UniProt P55809),0.191,0.157
UniProt Q8WZ73,-1.42,–
SH3GLB2 (UniProt Q9NR46),-1.79,1.67
GINS2 (UniProt Q9Y248),-0.378,-0.39
POLR1E (UniProt Q9GZS1),-0.83,-1.97
UniProt Q9Y388,-0.485,–
TSC1 (UniProt Q92574),-2.28,–
IVNS1ABP (UniProt Q9Y6Y0),0.84,4.03
ERCC1 (UniProt P07992),0.741,–
LONP2 (UniProt Q86WA8),0.919,1.6
ARL2 (UniProt P36404),-0.23,-1.98
EPHA7 (UniProt Q15375),–,-0.951
MRPS31 (UniProt Q92665),-0.329,-0.726
RANBP3 (UniProt Q9H6Z4),-2.67,0.0832
SH3BGRL (UniProt O75368),-2.6,-1.44
UniProt P55199,0.404,-4.36
TRIT1 (UniProt Q9H3H1),-0.0524,–
UniProt Q16623,-1.25,–

# Repeats are few or missing, and single values can be far off.
